These are yes or no findings as the source states them, for the method shown. Binding seen in cells or lysates may run through a third protein. Some binding calls cover weakened binding; strength is not graded here.
Biological target: BACE1 (the β-secretase in the brain), mouse (mouse (endogenous in forebrain)) (UniProt P56818)
Experiment: co-IP

Protein sequences, listed by entry. Tags and fused reporters are not part of them. Residues count along the entry.
UniProt P56818, residues 46-501: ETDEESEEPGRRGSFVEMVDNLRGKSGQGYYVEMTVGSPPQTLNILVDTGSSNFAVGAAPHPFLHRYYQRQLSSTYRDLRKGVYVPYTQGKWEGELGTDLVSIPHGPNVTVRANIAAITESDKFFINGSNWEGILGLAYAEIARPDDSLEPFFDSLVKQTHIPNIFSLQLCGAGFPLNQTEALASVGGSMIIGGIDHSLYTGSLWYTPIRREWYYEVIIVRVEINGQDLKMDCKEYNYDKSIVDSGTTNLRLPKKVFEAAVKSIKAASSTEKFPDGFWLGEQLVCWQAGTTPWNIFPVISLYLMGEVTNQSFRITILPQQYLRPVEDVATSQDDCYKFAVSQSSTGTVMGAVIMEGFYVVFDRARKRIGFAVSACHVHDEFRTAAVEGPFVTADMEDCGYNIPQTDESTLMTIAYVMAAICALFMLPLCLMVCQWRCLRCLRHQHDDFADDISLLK
UniProt P12023, residues 18-770: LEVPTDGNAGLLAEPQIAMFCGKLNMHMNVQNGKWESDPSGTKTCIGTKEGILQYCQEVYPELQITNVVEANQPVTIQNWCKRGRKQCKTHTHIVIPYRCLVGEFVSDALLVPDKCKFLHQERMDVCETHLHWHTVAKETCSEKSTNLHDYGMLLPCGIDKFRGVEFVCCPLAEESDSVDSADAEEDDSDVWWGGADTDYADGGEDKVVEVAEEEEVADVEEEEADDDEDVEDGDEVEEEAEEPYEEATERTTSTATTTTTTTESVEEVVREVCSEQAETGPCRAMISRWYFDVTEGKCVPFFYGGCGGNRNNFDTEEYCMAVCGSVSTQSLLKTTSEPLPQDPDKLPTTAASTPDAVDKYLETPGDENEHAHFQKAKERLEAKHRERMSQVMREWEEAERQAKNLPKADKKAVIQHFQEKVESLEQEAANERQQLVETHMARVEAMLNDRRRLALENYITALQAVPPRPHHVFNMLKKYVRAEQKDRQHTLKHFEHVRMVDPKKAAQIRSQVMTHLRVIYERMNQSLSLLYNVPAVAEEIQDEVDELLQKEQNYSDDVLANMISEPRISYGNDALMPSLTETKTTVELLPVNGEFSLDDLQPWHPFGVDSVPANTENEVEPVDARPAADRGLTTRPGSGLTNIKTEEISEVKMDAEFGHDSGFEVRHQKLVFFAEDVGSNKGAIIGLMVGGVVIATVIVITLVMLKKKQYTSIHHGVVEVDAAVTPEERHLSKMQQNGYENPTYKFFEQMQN

Amyloid Precursor Protein (APP), mouse (from UniProt P12023 18-770)
binding: binds
